Source: PubChem BioAssay AID540276 (National Center for Advancing Translational Sciences (NCATS), 2011)
“And” between values parts separate entries of the source, which are not always exact repeats. Equal values may be shown once. The whole screen tested about 300,000 compounds, of which about 5,400 (1.8%) were called active. The shares of active, inactive and inconclusive entries below differ from those in the screen. Calls come from the whole dose curve; tested in HEK293 cells. Potencies beside an inconclusive call are fits to weak or partial responses and may not hold up.

Experiment: qHTS for inhibitors of binding or entry into cells for Marburg Virus
Conditions: Marburg virus pseudotyped entry inhibition, cell reporter; series mostly up to 37.8 µM
Potency is the fitted concentration of half-maximal effect.

Row | Compound | Potency
1 | COC(=O)c1ccc(OCCOCCOc2cccc3ccc(C)nc23)cc1 | inconclusive: 4.47 µM [inhibitor, full curve, poor fit]
2 | COc1ccc(S(=O)(=O)N(C)CC(=O)N2CCCCCC2)cc1 | inconclusive: 0.708 µM [inhibitor, full curve]
3 | CCC(C)NC(=O)c1c(-c2ccccc2)c(-c2ccccc2)nn(C)c1=O (configuration not stated) | inactive
4 | Cc1cccn2c(=O)c3cc(C(=O)NCc4ccccc4Cl)sc3nc12 | inactive
5 | COP(=O)(CC(=O)O)c1ccccc1 (configuration not stated) | inconclusive: 9.2 µM [activator, partial curve]
6 | O=C(O)c1ccc2c(c1)C(=O)N(NC(=O)c1ccc(O)cc1)C2=O | inconclusive: 8.2 µM [activator, partial curve, poor fit]
7 | Cn1nnnc1SCC(=O)NCc1ccco1 | inconclusive: 29.1 µM [activator, single point]
8 | c1ccn2cc(CSCC3CCCCC3)nc2c1 | inconclusive: 3.55 µM [inhibitor, single point]
9 | C[C@H]1O[C@@H](n2cc(F)c(=O)[nH]c2=O)[C@H](O)[C@H]1O | inactive
10 | COC(=O)c1ccc(OC)c(CSc2nnc(-c3ccc(C(C)(C)C)cc3)o2)c1 | inconclusive: 10 µM [inhibitor, partial curve, poor fit]
11 | COc1cc(C)c(-c2nc(CN3C[C@@H]4C[C@@H](C3)c3cccc(=O)n3C4)c(C)o2)cc1C | inconclusive: 6.31 µM [activator, single point]
12 | Cc1ccnc(NC(=O)C(C)n2cc([N+](=O)[O-])cn2)c1 (configuration not stated) | inconclusive: 5.01 µM [activator, single point]
13 | O=C(COc1ccc(Cl)cc1Cl)Nc1cccnc1 | inconclusive: 35.5 µM [activator, single point]
14 | Cc1cccc2sc(N3CCN(C(=O)C4COc5ccccc5O4)CC3)nc12 (configuration not stated) | inconclusive: 1.78 µM [inhibitor, partial curve, poor fit]
15 | Cc1cc(C)nc(/N=C(/NC(=O)c2ccccc2)Nc2ccccc2)n1 | inconclusive: 0.891 µM [activator, full curve, poor fit]
16 | Cc1cccc(OCC(=O)Nc2cc(C)ccc2O)c1 | inactive
17 | COc1ccc(-c2ccc(OC)cc2C(=O)O)cc1 | inconclusive: 0.112 µM [activator, partial curve, poor fit]
18 | O=C(c1ccc2c(c1)C(=O)N(Cc1ccncc1)C2=O)N1CCN(S(=O)(=O)c2ccc(OC(F)(F)F)cc2)CC1 | inconclusive: 2.51 µM [inhibitor, partial curve, poor fit]
19 | O=C(Nc1ccc(N=Nc2ccccc2)c(NC(=O)C2CCCO2)c1)C1CCCO1 (configuration not stated) | inconclusive: 15.8 µM [inhibitor, single point]
20 | O=C(CCC(=O)Nc1ccccc1)NNC(=O)C(c1ccccc1)c1ccccc1 | inactive
21 | CCOC(=O)C1=C(C)N=c2s/c(=C\c3ccc(OCC(=O)O)cc3)c(=O)n2C1c1ccc(Cl)cc1 (configuration not stated) | inconclusive: 11.2 µM [inhibitor, single point]

Row | Compound | Potency
22 | CCCc1ccccc1OCCNS(=O)(=O)c1cc2c(cc1C)OCC(=O)N2 | inconclusive: 35.5 µM [inhibitor, single point]
23 | COc1ccc(CN2CCC(CNS(=O)(=O)c3cccc(C(F)(F)F)c3)CC2)cc1 | inconclusive: 35.5 µM [inhibitor, single point]
24 | COc1cccc(C2=CC(c3ccc(N(C)C)cc3)n3nnnc3N2)c1 (configuration not stated) | inconclusive: 0.316 µM [inhibitor, partial curve, poor fit]
25 | Cc1ccc(NC(=O)/C=C/c2ccc(S(=O)(=O)N3CCOCC3)cc2)cc1S(=O)(=O)N(C)C | inconclusive: 22.4 µM [inhibitor, single point]
26 | CCOc1ccc(CNCCCSc2ncccn2)cc1 | inconclusive: 35.5 µM [inhibitor, partial curve, poor fit]
27 | O=C(OCc1nnc(-c2ccccc2)o1)c1cccc(-n2cnnn2)c1 | inactive
28 | Cc1cc(C)n(CCOc2ccc(Cl)cc2Cl)n1 | inconclusive: 17.8 µM [activator, single point]
29 | N/C(=N\OC(=O)c1cccs1)c1ccccc1 | inconclusive: 4.61 µM [activator, full curve, poor fit]
30 | O=c1c(Cl)c(Nc2cccc(Cl)c2)cnn1-c1nc2ccccc2s1 | inconclusive: 20 µM [inhibitor, partial curve, poor fit]
31 | O=C(CCc1ccc(O)cc1)c1c(O)cc(O)cc1O | inactive and inconclusive: 29.1 µM [activator, single point]
32 | Cc1c(C(=O)NCCCN2CCOCC2)sc2nc(-c3ccc(F)cc3)cn12 | inactive
33 | COc1ccc(CNC(=O)c2ccccc2NS(C)(=O)=O)cc1 | inactive
34 | COc1ccc(Cl)c2c1[nH]c1nc(SCc3ccccn3)nnc12 | inactive
35 | CCOC(=O)C1CCN(C(=O)C2CCCN(S(=O)(=O)c3ccc(OC)c(Cl)c3)C2)CC1 (configuration not stated) | inconclusive: 7.94 µM [inhibitor, partial curve, poor fit]
36 | COC(=O)c1ccc(S(=O)(=O)N2CCCN(Cc3ccccc3)CC2)n1C | inactive
37 | CN(Cc1ccccc1)Cc1c(O)ccc2ccccc12 | inconclusive: 35.5 µM [activator, single point]
38 | Cn1c(=O)c2[nH]c(NN=Cc3cccc(Br)c3)nc2n(C)c1=O | inconclusive: 22.4 µM [inhibitor, single point]
39 | O=C(CN(c1ccccc1Cl)S(=O)(=O)c1ccccc1)NCc1ccccc1 | inactive
40 | Nc1c(C(=O)NCCCc2ccccc2)c2nc3ccccc3nc2n1Cc1cccs1 | inconclusive: 23.1 µM [inhibitor, single point]
41 | COc1cc(/C=N/NC(N)=S)cc(Br)c1OCc1ccccc1F | inconclusive: 11.2 µM [inhibitor, partial curve, poor fit]
42 | N#Cc1c2c(c(NCc3cccnc3)n3c1nc1ccccc13)CCC2 | inconclusive: 0.116 µM [inhibitor, full curve, poor fit]

A second format for some results above.
Row,Compound,Potency
36,COC(=O)c1ccc(S(=O)(=O)N2CCCN(Cc3ccccc3)CC2)n1C,inactive
37,CN(Cc1ccccc1)Cc1c(O)ccc2ccccc12,"inconclusive: 35.5 µM [activator, single point]"
